Data taken from PubChem BioAssay AID274 (DTP/NCI, 2004).
The list shows only some results of the screen, not a fair sample: it is rich in T/C values a quarter to a half above the control, in often repeated tests (any T/C) and in doses without a T/C. Other doses and runs of a compound stand elsewhere. T/C is the treated group as % of the vehicle group. Some entries give survivors of the animals treated and no T/C: the source holds a T/C of zero for them, seemingly a mark for toxic or unscored doses. Some doses without a T/C left all or most animals alive at the check, yet need not have been tolerated: the source hardly ever lists a survival T/C far under the control, and the zero likely stands for such cases as well. Counts of survivors are from the toxicity check (mostly the fifth day) where no day follows; animals may have died later. Schedule codes are those of the source, taken here to give the interval after Q, in days (D) or hours (H), and the number of doses after X. For survival time, this PubChem deposit counts one and a half times the control or more as active, and values a quarter to a half above the control carry no call in these data; other NCI protocols may use other cut-offs. Some T/C values are followed by the survivors on the day toxicity was checked, most often the fifth; where none is given, no animal had died by that day. Numbered stars: 1 amine (or outer) side, 2 acyl side, 3 side chain; on linkers, the order of the positions; unused ones are H or OH. Bridge positions count the residues as written; N and C are the ends. Square brackets hold non-standard residues; d marks the D form. Peptide text beside a SMILES is read from it. I, II: the chains in the order shown. * marks the point of attachment. Actinocin(9to1) = Cc1c2oc3c(C)ccc(C(=O)[*:1])c3nc-2c(C(=O)[*:2])c(N)c1=O; X2 = CCC(=O)CC1CC(C)CC(C(=O)[*:2])N1[*:1]; aThr = C[C@H](O)[C@H](N)C(=O)O; NMeV = CN[C@H](C(=O)O)C(C)C; X1 = CCCCCCCCC(C)C(=O)*; Aib = CC(C)(N)C(=O)O; X3 = CC(CN(C)CCO)N*; Sar = CNCC(=O)O

Tested on: BDF1 mice, Lewis lung carcinoma iv, survival T/C
Assay: NCI In Vivo Anticancer Drug Screen. Data for tumor model Lewis Lung Carcinoma (intravenous) in B6D2F1 (BDF1) mice
Conditions: T/C endpoint: median survival time, higher T/C = longer survival
Description: The antitumor activity of compounds was measured in mice bearing transplantable tumors. Survival or tumor size were measured and the results are expressed as the measurement made in the treated group (T) divided by the measurement made in the vehicle treated control group (C). The tumor model used in this assay is Lewis Lung Carcinoma (intravenous) in B6D2F1 (BDF1) mice

[1] = dose: 25.0 mg/kg/injection, schedule: Q01DX009 (ip), vehicle: saline
[2] = dose: 2.78 mg/kg/injection, schedule: Q04DX003 (ip), vehicle: saline
[3] = dose: 600.0 micrograms/kg/injection, schedule: Q01DX009 (ip), vehicle: saline
[4] = dose: 1000.0 micrograms/kg/injection, schedule: Q01DX009 (ip), vehicle: saline
[5] = dose: 25.0 mg/kg/injection, schedule: Q01DX009 (ip), vehicle: saline with Tween-80
[6] = dose: 200.0 mg/kg/injection, schedule: Q01DX009 (ip), vehicle: saline
[7] = dose: 50.0 mg/kg/injection, schedule: Q01DX009 (ip), vehicle: saline
[8] = dose: 100.0 mg/kg/injection, schedule: Q01DX009 (ip), vehicle: saline
[9] = dose: 100.0 mg/kg/injection, schedule: Q01DX009 (ip), vehicle: Klucel (hydroxypropylcellulose) (HPC)
[10] = dose: 100.0 mg/kg/injection, schedule: Q01DX009 (ip), vehicle: saline with Tween-80
[11] = dose: 400.0 mg/kg/injection, schedule: Q01DX009 (ip), vehicle: saline with Tween-80
[12] = dose: 200.0 mg/kg/injection, schedule: Q01DX009 (ip), vehicle: Klucel (hydroxypropylcellulose) (HPC)
[13] = dose: 400.0 mg/kg/injection, schedule: Q01DX009 (ip), vehicle: Klucel (hydroxypropylcellulose) (HPC)
[14] = dose: 50.0 mg/kg/injection, schedule: Q01DX009 (ip), vehicle: saline with Tween-80
[15] = dose: 12.5 mg/kg/injection, schedule: Q01DX009 (ip), vehicle: Klucel (hydroxypropylcellulose) (HPC)

SMILES: CC(C)NCC(O)COc1cccc2ccccc12 (centres undefined)
- T/C (dose: 4.0 mg/kg/injection, schedule: Q01DX009 (ip), vehicle: Klucel (hydroxypropylcellulose) (HPC)): 127 % of control
- survivor count (dose: 128.0 mg/kg/injection, schedule: Q01DX009 (ip), vehicle: Klucel (hydroxypropylcellulose) (HPC)): 2 of 10

SMILES: C[CH2][Sn]([CH2]C)([O]S(C)(=O)=O)[O]S(C)(=O)=O
- survivor count [1]: 1 of 10

SMILES: CNC=O
- survivor count (dose: 800.0 mg/kg/injection, schedule: Q01DX009 (ip), vehicle: saline sonified): 10 of 10
- survivor count (dose: 1600.0 mg/kg/injection, schedule: Q01DX009 (ip), vehicle: saline sonified): 9 of 10
- survivor count (dose: 3200.0 mg/kg/injection, schedule: Q01DX009 (ip), vehicle: saline sonified): 0 of 10

SMILES: CCC1(O)CC2CN(CCc3c([nH]c4ccccc34)C(C(=O)OC)(c3cc4c(cc3OC)N(C)C3C(O)(C(N)=O)C(O)C5(CC)C=CCN6CCC43C65)C2)C1 (centres undefined) (tested in a mixture with another compound)
- survivor count [2]: 8 of 8
- survivor count (dose: 4.63 mg/kg/injection, schedule: Q04DX003 (ip), vehicle: saline): 8 of 8
- survivor count [3]: 8 of 8
- survivor count [4]: 7 of 8
- survivor count (dose: 1670.0 micrograms/kg/injection, schedule: Q01DX009 (ip), vehicle: saline): 8 of 8

SMILES: COc1c2occc2cc2ccc(=O)oc12
- survivor count (dose: 256.0 mg/kg/injection, schedule: Q01DX009 (ip), vehicle: saline with Tween-80): 8 of 10

SMILES: NC(N)=NC(N)=Nc1ccc(-c2ccc(N=C(N)N=C(N)N)cc2)cc1
- survivor count [5]: 5 of 10

SMILES: OCCNCCNc1ccnc2cc(Cl)ccc12
- survivor count [6]: 7 of 10

SMILES: CNc1nc(N(C)C)nc(N(C)C)n1
- survivor count (dose: 3.12 mg/kg/injection, schedule: Q01DX009 (ip), vehicle: saline): 10 of 10
- survivor count (dose: 6.25 mg/kg/injection, schedule: Q01DX009 (ip), vehicle: saline): 10 of 10
- survivor count [7]: 10 of 10
- survivor count [8]: 2 of 10

SMILES: C1CCC2OCCOCCOC3CCCCC3OCCOCCOC2C1 (centres undefined)
- survivor count [9]: 0 of 10

SMILES: O=Cc1ccc(C=O)c(Cl)c1
- survivor count (dose: 800.0 mg/kg/injection, schedule: Q01DX009 (ip), vehicle: Klucel (hydroxypropylcellulose) (HPC)): 7 of 10

SMILES: Cc1c2oc3c(C)ccc(C(=O)N[C@@H]4C(=O)N[C@H](C(C)C)C(=O)N5CCC[C@H]5C(=O)N(C)CC(=O)N(C)[C@@H](C(C)C)C(=O)O[C@H]4C)c3nc-2c(C(=O)N[C@@H]2C(=O)N[C@H](C(C)C)C(=O)N3CCC[C@H]3C(=O)N(C)CC(=O)N(C)[C@@H](C(C)C)C(=O)O[C@H]2C)c(N)c1=O (I: [aThr][dV]P[Sar][NMeV] / II: [aThr][dV]P[Sar][NMeV]; ester I:1-I:C, II:1-II:C; linker I:N-II:N via Actinocin(9to1))
- survivor count (dose: 500.0 micrograms/kg/injection, schedule: Q04DX003 (ip), vehicle: saline + alcohol): 8 of 8
- survivor count (dose: 720.0 micrograms/kg/injection, schedule: Q01DX001 (ip), vehicle: saline + alcohol): 3 of 8
- survivor count (dose: 1200.0 micrograms/kg/injection, schedule: Q01DX001 (ip), vehicle: saline + alcohol): 0 of 8

SMILES: CC[C@](C)(O)C(=O)O[C@H]1C(=O)O[C@@H]2C[C@H]3C(C)=CC(=O)[C@@H](O)[C@]3(C)[C@H]3[C@@]4(O)OC[C@]32[C@@H]1[C@@H](C)[C@H]4O
- survivor count (dose: 1.0 mg/kg/injection, schedule: Q01DX009 (ip), vehicle: steroid suspending solution): 4 of 10
- survivor count (dose: 2.0 mg/kg/injection, schedule: Q01DX009 (ip), vehicle: steroid suspending solution): 0 of 10

SMILES: OCCN1CCN(CC/C=C2/c3ccccc3Sc3ccc(Cl)cc32)CC1
- survivor count [1]: 9 of 10

SMILES: COC(=O)CC(N)C(=O)O (centres undefined)
- T/C [1]: 125 % of control

SMILES: C=C(Cl)C(=NC(C)(C)C)Nc1ccccc1C
- survivor count (dose: 50.0 mg/kg/injection, schedule: Q01DX009 (ip), vehicle: Klucel (hydroxypropylcellulose) (HPC)): 0 of 10

SMILES: CCOC(C)C(/C=N/NC(N)=S)=NNC(N)=S (centres undefined)
- T/C [10]: 128 % of control [9 of 10 alive]
- survivor count [11]: 10 of 10

SMILES: O=c1[nH]c(=O)n(C2CC(O)C(CO)O2)cc1I (centres undefined)
- survivor count [11]: 5 of 10
- survivor count (dose: 800.0 mg/kg/injection, schedule: Q01DX009 (ip), vehicle: saline with Tween-80): 6 of 10

SMILES: CCS(=O)(=O)OCCCCOS(=O)(=O)CC
- T/C (dose: 12.5 mg/kg/injection, schedule: Q01DX009 (ip), vehicle: saline): 133 % of control
- survivor count [1]: 7 of 10
- survivor count [7]: 10 of 10
- survivor count [8]: 8 of 10
- survivor count [6]: 2 of 10

SMILES: CCOC(=O)C1C2OC(=O)C(C(=O)C2CN(CCCl)CCCl)C1C1CC=C(CC2=CCC(C3C4C(=O)OC(C(CN(CCCl)CCCl)C4=O)C3C(=O)OCC)CC2)CC1 (centres undefined)
- survivor count [12]: 10 of 10
- survivor count [13]: 10 of 10

SMILES: O=C(Nc1cccc(Cl)c1)ON1C(=O)C2C(C1=O)C1(Cl)C(Cl)C(Cl)C2(Cl)C1(Cl)Cl (centres undefined)
- survivor count [10]: 8 of 10
- survivor count [11]: 1 of 10

SMILES: CCc1nc(N)nc(N)c1-c1ccc(Cl)c([N+](=O)[O-])c1
- T/C [5]: 132 % of control
- survivor count [14]: 10 of 10

SMILES: CCN(C)N=Nc1ccc(C(N)=O)cc1
- survivor count [12]: 9 of 10

SMILES: CC[C@]1(O)C[C@H]2CN(CCc3c([nH]c4ccccc34)[C@@](C(=O)OC)(c3cc4c(cc3OC)N(C=O)[C@H]3[C@@](O)(C(=O)OC)[C@H](OC(C)=O)[C@]5(CC)C=CCN6CC[C@]43[C@@H]65)C2)C1
- survivor count (dose: 1.67 mg/kg/injection, schedule: Q04DX003 (ip), vehicle: saline): 8 of 8
- survivor count [2]: 8 of 8
- survivor count (dose: 360.0 micrograms/kg/injection, schedule: Q01DX009 (ip), vehicle: saline): 8 of 8
- survivor count [3]: 7 of 8
- survivor count [4]: 7 of 8

SMILES: CCCCCCCCC(C)C(=O)N1CCCC1C(=O)N1C(CC(=O)CC)CC(C)CC1C(=O)NC(C)C(=O)NC(C)(C)C(=O)NC(C)(C)C(=O)NC(C(=O)NC(C)C(=O)NC(C)(C)C(=O)NC(C)(C)C(=O)NC(C)CN(C)CCO)C(C)CC (centres undefined) (X1-P[X2]A[Aib][Aib]IA[Aib][Aib]-X3; configuration not given here)
- survivor count (dose: 10.0 mg/kg/injection, schedule: Q01DX009 (ip), vehicle: Klucel (hydroxypropylcellulose) (HPC)): 0 of 10

SMILES: C=C1C(=O)OCC2C(C(=O)O)=CC3C(C)C(C)=CC123 (centres undefined)
- survivor count (dose: 20.0 mg/kg/injection, schedule: Q01DX009 (ip), vehicle: Klucel (hydroxypropylcellulose) (HPC)): 10 of 10

SMILES: CC1CCC(n2cnc3c(Cl)ncnc32)O1 (centres undefined)
- survivor count [13]: 5 of 10

SMILES: [N-]=[N+]=C1N=CN=C1c1ncn[nH]1
- survivor count [9]: 3 of 10

SMILES: Nc1ccc(Cl)cc1N
- survivor count [11]: 1 of 10

SMILES: Cc1cc(N(CCOS(C)(=O)=O)CCOS(C)(=O)=O)ccc1C=Nc1ccc(-c2nc(Cc3ccccc3)sc2C)cc1
- T/C [15]: 136 % of control
- survivor count [9]: 9 of 10
- survivor count [12]: 9 of 10
- survivor count [13]: 10 of 10

SMILES: CCc1cc(C(N)=S)ccn1
- survivor count (dose: 210.0 mg/kg/injection, schedule: Q01DX007 (ip), vehicle: Klucel (hydroxypropylcellulose) (HPC)): 10 of 10

SMILES: Cc1cc2cc3cc(C)c(N)cc3nc2cc1N
- survivor count [14]: 10 of 10
- survivor count [10]: 1 of 10

SMILES: C1CCC2[N-]CC3CCCCC3[N-]CC3CCCCC3[N-]CC3CCCCC3[N-]CC2C1.[Cu] (centres undefined)
- T/C (dose: 1.56 mg/kg/injection, schedule: Q01DX009 (ip), vehicle: Klucel (hydroxypropylcellulose) (HPC)): 126 % of control
- survivor count [15]: 10 of 10
- survivor count (dose: 25.0 mg/kg/injection, schedule: Q01DX009 (ip), vehicle: Klucel (hydroxypropylcellulose) (HPC)): 1 of 10
